Results deposited as PubChem BioAssay AID1259405 (NCATS, 2018).

Assay: 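Mouse-designed siRNAs used to find CHO productivity engineering targets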 (primary screen)
System: Chinese hamster CHO-K1 ovary cells with stable secreted eGFP expression
Knock-down reagent: single siRNA against mouse genes, 0.8 pmol siRNA per well (2 µl of 400 nM stock)
Time to read-out: 3 days
Measurement: 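Per-well intracellular GFP measured by laser scanning cytometry, plus viability from ATP luminescence, each relative to plate median of non-targeting control wells, in %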
Reading the numbers: GFP, % of control: higher = more GFP per well, higher productivity; viability (ATP), % of control: higher = more viable cells (more ATP)
Call rule: 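Called active when intracellular GFP, relative to negative control, is at or above 120%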
The deposit covers about 50,000 reagents; shown is an unselected part. About 4,000 of them (8%) were called active. 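Mouse siRNA library applied to hamster cells; one well for each siRNA.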

gene symbol | PubChem SID | GFP, % of control | viability (ATP), % of control | outcome
Abcb1b (ATP-binding cassette, sub-family B member 1B) | SID363547628 | 63.4 | 46.5 | inactive
Abcb1b (ATP-binding cassette, sub-family B member 1B) | SID363558397 | 88.2 | 101 | inactive
Abcb1b (ATP-binding cassette, sub-family B member 1B) | SID363560155 | 54.6 | 67.3 | inactive
Enox2 (ecto-NOX disulfide-thiol exchanger 2) | SID363545596 | 51.8 | 49.4 | inactive
Enox2 (ecto-NOX disulfide-thiol exchanger 2) | SID363549109 | 47 | 48.1 | inactive
Enox2 (ecto-NOX disulfide-thiol exchanger 2) | SID363562915 | 52.3 | 77 | inactive
Smad5 (SMAD family member 5) | SID363573736 | 67.6 | 71.1 | inactive
Smad5 (SMAD family member 5) | SID363581480 | 75.5 | 70.2 | inactive
Smad5 (SMAD family member 5) | SID363583944 | 72.1 | 89.9 | inactive
Mia3 (MIA SH3 domain ER export factor 3) | SID363541444 | 61.8 | 44.6 | inactive
Mia3 (MIA SH3 domain ER export factor 3) | SID363556071 | 50.3 | 60.5 | inactive
Mia3 (MIA SH3 domain ER export factor 3) | SID363566360 | 95.1 | 41.5 | inactive
Dffb (DNA fragmentation factor, beta subunit) | SID363545449 | 103 | 78.4 | inactive
Dffb (DNA fragmentation factor, beta subunit) | SID363548962 | 72.9 | 55.9 | inactive
Dffb (DNA fragmentation factor, beta subunit) | SID363562768 | 60.1 | 74.3 | inactive
Dhps (deoxyhypusine synthase) | SID363570678 | 88.3 | 114 | inactive
Dhps (deoxyhypusine synthase) | SID363579478 | 50.5 | 56.3 | inactive
Dhps (deoxyhypusine synthase) | SID363583350 | 128 | 111 | active
Srcin1 (SRC kinase signaling inhibitor 1) | SID363554632 | 71 | 66.5 | inactive
Srcin1 (SRC kinase signaling inhibitor 1) | SID363568079 | 77 | 63 | inactive
Srcin1 (SRC kinase signaling inhibitor 1) | SID363586138 | 97.5 | 97.2 | inactive
Rtn4rl2 (reticulon 4 receptor-like 2) | SID363568668 | 90.9 | 66.1 | inactive
Rtn4rl2 (reticulon 4 receptor-like 2) | SID363576060 | 46.5 | 26.8 | inactive
Rtn4rl2 (reticulon 4 receptor-like 2) | SID363578876 | 27.3 | 35.6 | inactive
Slc72a1 | SID363574796 | 89.5 | 77.5 | inactive
Slc72a1 | SID363575852 | 106 | 85.4 | inactive
Slc72a1 | SID363580428 | 78 | 50.8 | inactive
Pcdhb15 (protocadherin beta 15) | SID363573281 | 107 | 101 | inactive
Pcdhb15 (protocadherin beta 15) | SID363588520 | 99.4 | 80 | inactive
Pak3 (p21 (RAC1) activated kinase 3) | SID363570766 | 34.1 | 48.4 | inactive
Fastkd3 (FAST kinase domains 3) | SID363543331 | 103 | 63.2 | inactive
Fastkd3 (FAST kinase domains 3) | SID363552824 | 56.5 | 40.9 | inactive
Fastkd3 (FAST kinase domains 3) | SID363558672 | 69.8 | 71.5 | inactive
Pou6f1 (POU domain, class 6, transcription factor 1) | SID363540942 | 55.1 | 71.4 | inactive
Pou6f1 (POU domain, class 6, transcription factor 1) | SID363555569 | 72.8 | 79.6 | inactive
Pou6f1 (POU domain, class 6, transcription factor 1) | SID363565858 | 87.6 | 64.6 | inactive
Pkdcc (protein kinase domain containing, cytoplasmic) | SID363546567 | 124 | 74.8 | active
Pkdcc (protein kinase domain containing, cytoplasmic) | SID363548323 | 50.6 | 72.7 | inactive
Pkdcc (protein kinase domain containing, cytoplasmic) | SID363560501 | 27.7 | 39.3 | inactive
Trim38 (tripartite motif-containing 38) | SID363572723 | 91.8 | 90.4 | inactive
Trim38 (tripartite motif-containing 38) | SID363578003 | 74.9 | 79.2 | inactive
Trim38 (tripartite motif-containing 38) | SID363582227 | 90.1 | 121 | inactive
Tpcn1 (two pore channel 1) | SID363574727 | 69.5 | 86.9 | inactive
Tpcn1 (two pore channel 1) | SID363575783 | 46.6 | 60.6 | inactive
Tpcn1 (two pore channel 1) | SID363580359 | 80.8 | 68 | inactive
Atg9a (autophagy related 9A) | SID363546757 | 117 | 90.2 | inactive
Atg9a (autophagy related 9A) | SID363548513 | 38.4 | 45.4 | inactive
Atg9a (autophagy related 9A) | SID363560691 | 67.8 | 79 | inactive
Smco4 (single-pass membrane protein with coiled-coil domains 4) | SID363547151 | 133 | 137 | active
Smco4 (single-pass membrane protein with coiled-coil domains 4) | SID363549963 | 64.4 | 98.6 | inactive
Smco4 (single-pass membrane protein with coiled-coil domains 4) | SID363588017 | 189 | 148 | active
Zfp207 (zinc finger protein 207) | SID363556671 | 69.6 | 48.3 | inactive
Zfp207 (zinc finger protein 207) | SID363563575 | 168 | 72.6 | active
Zfp207 (zinc finger protein 207) | SID363587121 | 108 | 106 | inactive
A730089K16Rik (RIKEN cDNA A730089K16 gene) | SID363542710 | 107 | 72.5 | inactive
A730089K16Rik (RIKEN cDNA A730089K16 gene) | SID363546227 | 45.2 | 112 | inactive
A730089K16Rik (RIKEN cDNA A730089K16 gene) | SID363547983 | 86.7 | 88.5 | inactive
Bpifb1 (BPI fold containing family B, member 1) | SID363547774 | 55.5 | 89.7 | inactive
Bpifb1 (BPI fold containing family B, member 1) | SID363558543 | 38.8 | 42.5 | inactive
Bpifb1 (BPI fold containing family B, member 1) | SID363560301 | 74.1 | 117 | inactive
Gjb3 (gap junction protein, beta 3) | SID363541601 | 132 | 53.1 | active
Gjb3 (gap junction protein, beta 3) | SID363553193 | 68.5 | 57.5 | inactive
Gjb3 (gap junction protein, beta 3) | SID363566517 | 67.3 | 57.2 | inactive
Or4f62 (olfactory receptor family 4 subfamily F member 62) | SID363554403 | 80.3 | 82 | inactive
Or4f62 (olfactory receptor family 4 subfamily F member 62) | SID363567850 | 62.6 | 21.3 | inactive
Or4f62 (olfactory receptor family 4 subfamily F member 62) | SID363585207 | 37.1 | 86.4 | inactive
Lta4h (leukotriene A4 hydrolase) | SID363569923 | 106 | 96.9 | inactive
Lta4h (leukotriene A4 hydrolase) | SID363576963 | 51 | 82.5 | inactive
Lta4h (leukotriene A4 hydrolase) | SID363578371 | 66.4 | 56.7 | inactive
Kdm6a (lysine (K)-specific demethylase 6A) | SID363556599 | 49.5 | 54.7 | inactive
Kdm6a (lysine (K)-specific demethylase 6A) | SID363563503 | 85.9 | 62.1 | inactive
Kdm6a (lysine (K)-specific demethylase 6A) | SID363587049 | 102 | 98.7 | inactive
Irgm2 (immunity-related GTPase family M member 2) | SID363540342 | 88.2 | 68.3 | inactive
Irgm2 (immunity-related GTPase family M member 2) | SID363542094 | 81 | 85.6 | inactive
Irgm2 (immunity-related GTPase family M member 2) | SID363567010 | 129 | 94.7 | active
Nmrk1 (nicotinamide riboside kinase 1) | SID363547351 | 146 | 134 | active
Nmrk1 (nicotinamide riboside kinase 1) | SID363558120 | 58.2 | 55.1 | inactive
Nmrk1 (nicotinamide riboside kinase 1) | SID363559878 | 111 | 63.7 | inactive
Vopp1 (vesicular, overexpressed in cancer, prosurvival protein 1) | SID363546576 | 61.6 | 62.3 | inactive
Vopp1 (vesicular, overexpressed in cancer, prosurvival protein 1) | SID363548332 | 65.5 | 77.9 | inactive
Vopp1 (vesicular, overexpressed in cancer, prosurvival protein 1) | SID363560510 | 103 | 91.1 | inactive
Ehd1 (EH-domain containing 1) | SID363570296 | 105 | 118 | inactive
Ehd1 (EH-domain containing 1) | SID363576632 | 25.7 | 32 | inactive
Ehd1 (EH-domain containing 1) | SID363579800 | 77.9 | 65.1 | inactive

Hits, among the entries above:
gene symbol | PubChem SID | GFP, % of control | viability (ATP), % of control | outcome
Dhps (deoxyhypusine synthase) | SID363583350 | 128 | 111 | active
Pkdcc (protein kinase domain containing, cytoplasmic) | SID363546567 | 124 | 74.8 | active
Smco4 (single-pass membrane protein with coiled-coil domains 4) | SID363547151 | 133 | 137 | active
Smco4 (single-pass membrane protein with coiled-coil domains 4) | SID363588017 | 189 | 148 | active
Zfp207 (zinc finger protein 207) | SID363563575 | 168 | 72.6 | active
Gjb3 (gap junction protein, beta 3) | SID363541601 | 132 | 53.1 | active
Irgm2 (immunity-related GTPase family M member 2) | SID363567010 | 129 | 94.7 | active
Nmrk1 (nicotinamide riboside kinase 1) | SID363547351 | 146 | 134 | active
